Assay results: article PMC4376871

Assays:
Test in all cases: two-hybrid; yeast Y187; C4 or C4 mutants on AD, AtSKs on DBD; quantitative ß-galactosidase activity (Galacto-Star, chemiluminescence) relative to the C4/AtSK23 interaction
[1] = biological target: T1, Arabidopsis SHAGGY-like protein kinase AtSK21 fused to the GAL4 DNA binding domain (Arabidopsis thaliana (ecotype Sei-0 cDNA)) (UniProt Q39011)
T1 sequence: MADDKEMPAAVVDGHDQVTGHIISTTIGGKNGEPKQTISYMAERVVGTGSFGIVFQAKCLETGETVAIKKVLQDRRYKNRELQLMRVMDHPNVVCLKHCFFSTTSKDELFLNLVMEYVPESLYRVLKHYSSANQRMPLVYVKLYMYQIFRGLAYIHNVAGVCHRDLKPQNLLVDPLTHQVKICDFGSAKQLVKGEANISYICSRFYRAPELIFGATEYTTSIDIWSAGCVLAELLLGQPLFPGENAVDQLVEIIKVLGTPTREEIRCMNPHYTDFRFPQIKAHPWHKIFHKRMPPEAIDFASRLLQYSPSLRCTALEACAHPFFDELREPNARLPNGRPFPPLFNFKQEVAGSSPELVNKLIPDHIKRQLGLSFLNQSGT

[2] = biological target: T2, Arabidopsis SHAGGY-like protein kinase AtSK22 fused to the GAL4 DNA binding domain (Arabidopsis thaliana (ecotype Sei-0 cDNA)) (UniProt Q39012)
T2 sequence: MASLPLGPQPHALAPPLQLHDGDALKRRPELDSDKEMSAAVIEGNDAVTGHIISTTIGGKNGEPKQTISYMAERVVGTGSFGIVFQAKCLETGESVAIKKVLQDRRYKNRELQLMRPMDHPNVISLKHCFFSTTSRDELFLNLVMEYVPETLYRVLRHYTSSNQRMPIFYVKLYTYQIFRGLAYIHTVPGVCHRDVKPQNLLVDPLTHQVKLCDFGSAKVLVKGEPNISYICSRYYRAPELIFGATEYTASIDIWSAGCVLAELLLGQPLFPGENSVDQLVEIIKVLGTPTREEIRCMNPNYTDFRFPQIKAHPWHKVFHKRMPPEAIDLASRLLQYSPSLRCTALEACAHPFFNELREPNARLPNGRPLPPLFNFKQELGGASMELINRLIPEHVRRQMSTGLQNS

[3] = biological target: T3, Arabidopsis SHAGGY-like protein kinase AtSK23 fused to the GAL4 DNA binding domain (Arabidopsis thaliana (ecotype Sei-0 cDNA)) (UniProt Q39010)
T3 sequence: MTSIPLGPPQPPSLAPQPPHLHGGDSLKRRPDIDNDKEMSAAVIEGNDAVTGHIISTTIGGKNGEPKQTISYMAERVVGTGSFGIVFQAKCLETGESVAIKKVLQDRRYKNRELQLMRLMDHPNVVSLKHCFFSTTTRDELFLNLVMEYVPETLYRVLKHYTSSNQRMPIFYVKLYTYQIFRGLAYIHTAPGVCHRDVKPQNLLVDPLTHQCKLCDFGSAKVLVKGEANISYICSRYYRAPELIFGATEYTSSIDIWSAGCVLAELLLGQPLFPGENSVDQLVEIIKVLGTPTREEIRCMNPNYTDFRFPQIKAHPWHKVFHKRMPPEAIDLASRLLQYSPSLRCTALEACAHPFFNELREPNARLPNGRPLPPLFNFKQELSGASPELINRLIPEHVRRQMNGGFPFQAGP

[4] = biological target: T4, Kinase-dead AtSK21K69R fused to the GAL4 DNA binding domain (Arabidopsis thaliana (ecotype Sei-0 cDNA)) (UniProt Q39011)
T4 sequence: T1 sequence with K69R

[5] = biological target: T5, Kinase-dead AtSK23K101R fused to the GAL4 DNA binding domain (Arabidopsis thaliana (ecotype Sei-0 cDNA)) (UniProt Q39010)
T5 sequence: T3 sequence with K101R

Beet curly top virus (BCTV-B[US:Logan:76]) C4 protein fused to the GAL4 activation domain
binding [1]: binds | binding [2]: binds | binding [3]: binds | binding [4]: no binding | binding [5]: no binding

Positions count from the first letter of the chain named. Results are given in words; binding and its absence hold for the method and conditions named. For some assays here: A result given as binding can be weak or reduced; the word gives no strength. Where a sequence is shown, tags or fusion partners need not be part of it.
